Data: PMC3344845, “Structure of Bradavidin – C-Terminal Residues Act as Intrinsic Ligands” (PLoS ONE, 2012)
Results are given in words; binding and its absence hold for the method and conditions named. Tags and fused reporters may be left off the sequences shown.

Chains of the proteins cited; added tags and fusions are not shown. Residues count along the entry.
UniProt P02701, residues 25-152: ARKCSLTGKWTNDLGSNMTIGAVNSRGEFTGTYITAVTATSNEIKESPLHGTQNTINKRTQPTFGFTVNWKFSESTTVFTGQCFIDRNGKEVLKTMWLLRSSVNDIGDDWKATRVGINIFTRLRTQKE

Experiments:
chicken avidin (chicken) = chicken avidin (chicken) (UniProt P02701); assay: ITC; core-bradavidin, avidin, streptavidin or rhizavidin in the cell, Brad-tag in the syringe, 40°C, 50 mM sodium phosphate pH 7.0, 100 mM NaCl; n is the stoichiometry per subunit; both purified
[1] = target: streptavidin (Streptomyces avidinii) (UniProt P22629); assay: as above

B1: Brad-tag (synthetic peptide SEKLSNTK) (peptide)
peptide: SEKLSNTK
With B1 the binding (chicken avidin (chicken)) was “no binding” and the binding [1] was “no binding”.
